The record followed here is PubChem BioAssay AID1347423 (Functional Genomics Laboratory (NCATS/FGL), 2020).

Among all 52,000 sequences or so, about 210 (0.4%) were called active.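 Rule for the calls: active = gene whose silencing raises cell survival under the drug, median off-target-corrected z-score across its silencing RNAs 2 or more; inactive = the rest.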 The list shows a part of the results.

The nature of this assay: Resistance to Poly (ADP-Ribose) Polymerase inhibitor: Gene Identification via Genome-wide siRNA Screen. Particulars: mouse BRCA2 R2336H ES cells, olaparib, CellTiter-Glo viability; stronger effect = higher value. An outline of the steps:
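Mouse BRCA2 R2336H ES cells were reverse-transfected with siRNA (20 nM final), treated at 48 h with 500 nM olaparib, and read by CellTiter-Glo after 72 h. Scores: MAD-based z per siRNA, median per gene, seed off-target correction.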
(ATP-based viability assays read luminescence as a measure of living cells.)
Regarding GGAGAUAGAGUUACCUUUGTT against Nbn, the z-score is inactive: -1.59.
Consider GGUUCUCAGAGCCAGAAAUTT against Dtprp, for which the z-score was inactive: -0.413.
As for GGAGAUUUUCCAAAAUGUGTT against Proc, the z-score was inactive: 0.802.
For the sequence GGUGGCUUCUGCUUAUUUCTT against Slc13a1, the z-score was inactive: 0.721.
GGCCGAAUGGGUCUCUACATT against Gabrr2: the z-score is inactive: -3.09.
Turning to GGAGCGAGGAAUCAAUGUUTT against Prss8, the z-score is inactive: -1.58.
The figure for “UAAUAUUGUCAGCUGGCUUTT against D830030K20Rik” is inactive: -0.184; for CCGGCAAUUGCCUCAUUAUTT against Olfr1145 it is inactive: -1.15.
As for GGAUGCCCAUCGUUAUGGUTT against AV340375, the z-score was inactive: -1.16.
As to GGAAAAGCAUCAAUUGAUGTT against Abca8b, the z-score is inactive: -0.622.
For the sequence GGGAAUAUUUUCAAGUUGCTT against Tmem14a, the z-score was inactive: 0.342.
For GCAUUAAGCACGAGAAAAATT against Slc18a2, the z-score was inactive: -0.824.
For GCAAAACUUGGAACGAUUUTT against Ddx1, the z-score was inactive: 0.88.
With “GGAGAGGGAUAAGUUCUACTT against 9030205A07”, the z-score was inactive: -0.384.
Regarding GGUACUAAAGUGUGAUGUGTT against Nnmt, the z-score was inactive: 0.575.
In the case of “GGAAAAAUCAAAAGUGUUGTT against 1500001M20Rik”, the z-score is inactive: 1.35.
The figure for GCUGAACUUAUCAACCAGATT against Btbd14b is inactive: -0.647; for GGACGAUGGAAAGCUCUAUTT against Olfr1229 it is inactive: 0.0356.
For “GGCAGCUGUAGAGGUGUUCTT against 1110020L19Rik”, the z-score was inactive: -0.564.
For the sequence GGAUGUGGACACCUUUGCATT against Pxmp2, the z-score was inactive: 0.482.
For the sequence GCAUUACUGAUUCUUUCUUTT against V1rh4, the z-score is inactive: -0.188.
The figure for GGAAUUCGAUGCAUUUGUATT against Il18rap is inactive: 1.38.
Turning to GGUGAUCUCUUUAUUCUACTT against Olfr472, the z-score was inactive: -0.255.
The figure for GGAAGAGGUGAAAAUUACCTT against Plg is inactive: 0.761; for GCCACAAUGUCCAAAAUUATT against Rab6 it is inactive: 2.52; for GGUAGCUAGUAUCCAAUAATT against Psen1 it is inactive: -0.916.
The figure for GGUGGAGGGAAUGAACAUCTT against Slc1a5 is inactive: 2.55.
For the sequence GGGCAACUUGGAAUAAAGATT against Dsg3, the z-score is inactive: 0.725.
The figure for “GCCCGCCUAUUUGAAAGCATT against 1110034O07Rik” is inactive: 0.623.
